Test results taken from the supplement of paper PMC10849652.
Some of the results follow.

The chains behind the UniProt entries cited, without tags or fusion partners. Where a name states a change or a piece, a line headed by the entry shows the natural chain unless it says otherwise.
UniProt P23743: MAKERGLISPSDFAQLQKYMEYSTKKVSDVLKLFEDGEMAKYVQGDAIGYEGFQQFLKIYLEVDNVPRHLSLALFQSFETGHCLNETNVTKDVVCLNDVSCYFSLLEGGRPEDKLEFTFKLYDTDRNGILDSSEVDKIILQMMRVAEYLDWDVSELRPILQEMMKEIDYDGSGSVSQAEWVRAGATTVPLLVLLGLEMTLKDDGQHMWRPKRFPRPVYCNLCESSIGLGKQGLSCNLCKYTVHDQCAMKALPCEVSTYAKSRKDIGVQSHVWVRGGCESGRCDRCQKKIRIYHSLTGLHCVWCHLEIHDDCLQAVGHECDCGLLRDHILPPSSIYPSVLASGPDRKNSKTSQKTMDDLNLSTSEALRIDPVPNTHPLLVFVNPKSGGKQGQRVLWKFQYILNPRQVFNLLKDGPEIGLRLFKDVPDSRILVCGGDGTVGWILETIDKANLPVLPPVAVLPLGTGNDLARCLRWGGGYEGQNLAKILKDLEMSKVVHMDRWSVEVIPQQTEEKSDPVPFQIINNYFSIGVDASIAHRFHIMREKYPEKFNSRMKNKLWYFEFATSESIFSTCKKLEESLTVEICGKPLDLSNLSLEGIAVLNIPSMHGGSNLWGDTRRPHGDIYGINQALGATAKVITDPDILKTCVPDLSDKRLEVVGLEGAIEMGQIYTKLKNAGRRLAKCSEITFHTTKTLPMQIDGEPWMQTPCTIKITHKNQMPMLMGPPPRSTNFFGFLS
UniProt Q96EY1: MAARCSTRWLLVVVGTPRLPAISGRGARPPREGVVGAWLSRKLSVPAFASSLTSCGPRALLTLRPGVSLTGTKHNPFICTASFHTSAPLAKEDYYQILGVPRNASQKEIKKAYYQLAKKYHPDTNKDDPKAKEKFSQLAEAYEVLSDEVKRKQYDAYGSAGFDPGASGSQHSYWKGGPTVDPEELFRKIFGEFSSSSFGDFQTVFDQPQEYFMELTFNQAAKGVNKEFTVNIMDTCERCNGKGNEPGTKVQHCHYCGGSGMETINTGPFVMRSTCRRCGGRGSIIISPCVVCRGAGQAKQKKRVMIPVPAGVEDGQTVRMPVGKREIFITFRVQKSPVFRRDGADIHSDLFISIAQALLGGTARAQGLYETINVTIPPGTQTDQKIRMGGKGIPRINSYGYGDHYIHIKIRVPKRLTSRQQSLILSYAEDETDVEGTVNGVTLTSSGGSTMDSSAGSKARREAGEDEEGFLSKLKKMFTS
UniProt P51530: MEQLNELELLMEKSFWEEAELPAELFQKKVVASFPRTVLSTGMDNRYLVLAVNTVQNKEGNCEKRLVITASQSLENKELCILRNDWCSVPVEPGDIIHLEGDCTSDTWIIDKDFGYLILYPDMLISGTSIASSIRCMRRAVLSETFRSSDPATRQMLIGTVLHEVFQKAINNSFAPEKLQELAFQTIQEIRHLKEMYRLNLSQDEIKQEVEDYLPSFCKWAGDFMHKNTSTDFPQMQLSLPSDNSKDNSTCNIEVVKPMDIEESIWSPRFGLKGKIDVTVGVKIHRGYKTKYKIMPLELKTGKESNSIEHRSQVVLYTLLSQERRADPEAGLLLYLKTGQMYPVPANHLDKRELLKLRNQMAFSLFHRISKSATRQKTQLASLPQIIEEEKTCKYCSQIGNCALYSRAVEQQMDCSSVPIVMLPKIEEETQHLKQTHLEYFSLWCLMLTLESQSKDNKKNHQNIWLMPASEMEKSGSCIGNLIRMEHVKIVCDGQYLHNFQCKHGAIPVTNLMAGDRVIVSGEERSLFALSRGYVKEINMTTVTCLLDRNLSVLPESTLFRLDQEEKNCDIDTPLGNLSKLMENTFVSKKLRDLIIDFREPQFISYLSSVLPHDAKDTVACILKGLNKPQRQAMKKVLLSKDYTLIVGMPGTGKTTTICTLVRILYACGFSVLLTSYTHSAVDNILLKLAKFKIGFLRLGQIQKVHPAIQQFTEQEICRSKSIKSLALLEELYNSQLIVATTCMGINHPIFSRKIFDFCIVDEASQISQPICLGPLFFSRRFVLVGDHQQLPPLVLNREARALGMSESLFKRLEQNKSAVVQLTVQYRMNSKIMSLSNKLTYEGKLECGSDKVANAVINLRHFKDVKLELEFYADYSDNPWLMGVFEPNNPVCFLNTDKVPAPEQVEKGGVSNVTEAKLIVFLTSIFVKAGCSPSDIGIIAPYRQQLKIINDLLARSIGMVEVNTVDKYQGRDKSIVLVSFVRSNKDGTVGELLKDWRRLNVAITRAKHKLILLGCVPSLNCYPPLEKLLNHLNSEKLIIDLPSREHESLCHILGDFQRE
UniProt Q14147: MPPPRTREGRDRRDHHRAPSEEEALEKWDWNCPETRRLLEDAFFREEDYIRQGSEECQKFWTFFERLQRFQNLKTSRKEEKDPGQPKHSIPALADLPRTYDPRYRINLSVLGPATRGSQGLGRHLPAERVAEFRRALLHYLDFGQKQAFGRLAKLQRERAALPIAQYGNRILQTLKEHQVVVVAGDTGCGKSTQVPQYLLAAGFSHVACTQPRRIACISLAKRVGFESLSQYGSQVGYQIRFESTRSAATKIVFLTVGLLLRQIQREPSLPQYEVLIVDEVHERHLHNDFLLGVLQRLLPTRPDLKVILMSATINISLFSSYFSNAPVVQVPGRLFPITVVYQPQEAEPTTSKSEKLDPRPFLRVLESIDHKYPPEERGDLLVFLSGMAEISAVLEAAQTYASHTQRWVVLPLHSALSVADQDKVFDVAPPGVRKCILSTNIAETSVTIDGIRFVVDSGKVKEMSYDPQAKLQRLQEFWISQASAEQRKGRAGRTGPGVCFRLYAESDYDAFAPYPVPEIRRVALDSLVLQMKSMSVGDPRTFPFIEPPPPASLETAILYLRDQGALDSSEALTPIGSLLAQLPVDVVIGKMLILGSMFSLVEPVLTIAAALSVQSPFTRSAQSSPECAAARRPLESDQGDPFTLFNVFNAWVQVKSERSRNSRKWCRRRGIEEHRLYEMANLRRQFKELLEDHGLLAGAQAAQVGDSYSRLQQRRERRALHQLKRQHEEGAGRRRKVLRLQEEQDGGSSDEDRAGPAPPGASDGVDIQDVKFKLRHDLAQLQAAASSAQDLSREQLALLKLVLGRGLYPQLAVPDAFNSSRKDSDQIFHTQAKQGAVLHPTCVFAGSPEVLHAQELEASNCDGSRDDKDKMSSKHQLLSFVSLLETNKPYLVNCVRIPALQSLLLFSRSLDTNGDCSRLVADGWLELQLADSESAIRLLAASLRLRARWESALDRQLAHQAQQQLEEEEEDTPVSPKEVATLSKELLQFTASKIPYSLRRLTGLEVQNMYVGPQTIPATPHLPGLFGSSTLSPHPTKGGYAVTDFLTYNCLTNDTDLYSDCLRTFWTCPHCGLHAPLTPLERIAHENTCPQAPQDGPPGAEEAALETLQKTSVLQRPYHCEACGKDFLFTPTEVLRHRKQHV
UniProt Q8TDM6: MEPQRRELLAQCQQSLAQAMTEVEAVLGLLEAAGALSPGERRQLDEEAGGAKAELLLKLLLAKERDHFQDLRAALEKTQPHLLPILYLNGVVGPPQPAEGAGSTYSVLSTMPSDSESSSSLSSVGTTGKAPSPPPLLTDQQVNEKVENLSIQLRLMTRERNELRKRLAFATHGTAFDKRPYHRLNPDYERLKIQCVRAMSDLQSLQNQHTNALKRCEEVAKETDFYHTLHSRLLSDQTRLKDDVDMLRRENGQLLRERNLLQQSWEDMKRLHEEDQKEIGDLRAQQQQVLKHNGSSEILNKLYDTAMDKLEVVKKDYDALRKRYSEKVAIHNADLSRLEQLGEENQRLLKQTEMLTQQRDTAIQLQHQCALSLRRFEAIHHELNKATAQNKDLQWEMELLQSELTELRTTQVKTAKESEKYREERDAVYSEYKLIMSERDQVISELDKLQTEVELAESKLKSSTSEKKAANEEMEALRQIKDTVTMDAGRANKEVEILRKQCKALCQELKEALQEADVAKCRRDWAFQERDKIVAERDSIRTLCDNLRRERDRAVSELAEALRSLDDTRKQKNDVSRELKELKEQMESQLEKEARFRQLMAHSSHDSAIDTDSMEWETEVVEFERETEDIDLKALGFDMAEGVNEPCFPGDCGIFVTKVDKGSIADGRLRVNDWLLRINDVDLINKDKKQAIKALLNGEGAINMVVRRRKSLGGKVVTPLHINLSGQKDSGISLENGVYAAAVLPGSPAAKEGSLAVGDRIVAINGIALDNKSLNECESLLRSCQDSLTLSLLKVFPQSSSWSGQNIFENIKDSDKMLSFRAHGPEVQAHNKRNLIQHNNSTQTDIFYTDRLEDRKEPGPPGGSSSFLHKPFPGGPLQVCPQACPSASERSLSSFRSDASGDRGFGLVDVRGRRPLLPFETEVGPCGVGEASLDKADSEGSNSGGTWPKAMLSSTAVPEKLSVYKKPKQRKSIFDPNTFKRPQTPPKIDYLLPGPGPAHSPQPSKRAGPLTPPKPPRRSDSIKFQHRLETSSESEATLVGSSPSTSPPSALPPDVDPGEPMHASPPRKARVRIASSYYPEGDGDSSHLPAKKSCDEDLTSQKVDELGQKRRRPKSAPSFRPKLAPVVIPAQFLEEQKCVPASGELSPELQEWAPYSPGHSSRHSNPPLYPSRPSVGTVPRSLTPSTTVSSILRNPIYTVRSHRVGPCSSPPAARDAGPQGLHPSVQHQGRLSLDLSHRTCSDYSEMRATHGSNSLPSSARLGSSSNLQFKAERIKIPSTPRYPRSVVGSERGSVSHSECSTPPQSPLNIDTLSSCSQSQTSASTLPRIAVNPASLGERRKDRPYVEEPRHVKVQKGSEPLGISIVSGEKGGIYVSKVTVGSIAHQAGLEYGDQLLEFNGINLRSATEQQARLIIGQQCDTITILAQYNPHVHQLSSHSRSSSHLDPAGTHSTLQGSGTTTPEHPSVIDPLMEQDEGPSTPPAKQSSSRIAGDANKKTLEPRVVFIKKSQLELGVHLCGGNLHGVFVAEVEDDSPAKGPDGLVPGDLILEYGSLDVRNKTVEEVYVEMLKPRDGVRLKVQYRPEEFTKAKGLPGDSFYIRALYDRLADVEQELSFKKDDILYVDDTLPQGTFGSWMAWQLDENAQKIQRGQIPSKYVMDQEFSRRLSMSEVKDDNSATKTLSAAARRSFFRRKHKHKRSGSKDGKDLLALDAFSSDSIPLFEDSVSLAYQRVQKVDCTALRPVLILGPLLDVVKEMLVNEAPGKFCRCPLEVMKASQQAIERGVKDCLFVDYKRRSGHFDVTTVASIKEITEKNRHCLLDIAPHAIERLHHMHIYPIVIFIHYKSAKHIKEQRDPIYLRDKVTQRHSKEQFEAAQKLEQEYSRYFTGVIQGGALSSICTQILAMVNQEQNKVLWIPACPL
UniProt Q5QJE6: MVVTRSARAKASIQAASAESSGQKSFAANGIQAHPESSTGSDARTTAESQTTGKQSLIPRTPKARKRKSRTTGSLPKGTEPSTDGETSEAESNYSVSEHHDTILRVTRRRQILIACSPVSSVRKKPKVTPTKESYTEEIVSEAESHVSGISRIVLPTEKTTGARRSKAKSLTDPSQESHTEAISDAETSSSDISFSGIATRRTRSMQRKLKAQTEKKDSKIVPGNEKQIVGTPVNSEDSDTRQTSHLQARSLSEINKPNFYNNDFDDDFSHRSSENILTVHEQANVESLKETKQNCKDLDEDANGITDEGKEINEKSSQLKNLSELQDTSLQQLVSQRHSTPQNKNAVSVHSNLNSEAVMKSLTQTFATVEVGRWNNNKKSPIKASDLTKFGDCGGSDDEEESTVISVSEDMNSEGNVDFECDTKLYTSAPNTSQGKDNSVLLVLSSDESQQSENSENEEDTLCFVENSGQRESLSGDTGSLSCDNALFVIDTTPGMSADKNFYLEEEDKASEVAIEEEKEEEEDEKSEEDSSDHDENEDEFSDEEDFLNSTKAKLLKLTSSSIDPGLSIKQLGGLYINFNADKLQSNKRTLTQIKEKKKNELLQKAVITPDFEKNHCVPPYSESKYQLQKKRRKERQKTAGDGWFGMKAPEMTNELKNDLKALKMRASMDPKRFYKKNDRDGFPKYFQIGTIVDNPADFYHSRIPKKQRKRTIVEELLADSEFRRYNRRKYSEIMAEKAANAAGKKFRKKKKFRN
UniProt Q96GE9: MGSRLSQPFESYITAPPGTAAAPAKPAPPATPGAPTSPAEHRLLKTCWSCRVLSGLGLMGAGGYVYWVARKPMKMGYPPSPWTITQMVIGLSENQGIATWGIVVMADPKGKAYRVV
UniProt Q9NW81: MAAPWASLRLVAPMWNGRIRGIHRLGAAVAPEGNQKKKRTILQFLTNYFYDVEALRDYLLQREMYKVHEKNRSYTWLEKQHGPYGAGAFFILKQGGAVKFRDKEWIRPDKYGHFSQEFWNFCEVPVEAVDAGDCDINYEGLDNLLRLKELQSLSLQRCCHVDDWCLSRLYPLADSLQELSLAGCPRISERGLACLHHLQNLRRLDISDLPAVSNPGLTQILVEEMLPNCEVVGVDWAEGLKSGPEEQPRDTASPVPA

Experiments:
Test in all cases: log2 fold change, soluble protein after heating vs DMSO (PISA); higher = thermal stabilisation; K562 lysate, 10 uM; active = over 0.2 and 3.5 SD of the protein, either way, in both replicates (recomputed)
vemurafenib = compound: CCCS(=O)(=O)Nc1ccc(F)c(C(=O)c2c[nH]c3ncc(-c4ccc(Cl)cc4)cc23)c1F [vemurafenib]
In short: (§1)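 K562 pellets were dounce-homogenised in PBS pH 7.4 with 1 mM MgCl2, and the crude extract at 1 mg/mL protein was treated with 10 μM compound for 30 min. Aliquots were heated for 3 min across 48°C-58°C, pooled, and brought to 0.5% NP-40 at 4°C; soluble protein was the supernatant after 21,000xg for 90 min. Soluble protein was quantified by TMTpro 16plex LC-MS/MS with channel sums equalised, and reported as log2 fold change in thermal stability against DMSO controls, with values from duplicates.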

[1] = compound: CCCS(=O)(=O)Nc1ccc(F)c(C(=O)c2c[nH]c3ncc(Cl)cc23)c1F
In short: as §1

barasertib = compound: CCN(CCCOc1ccc2c(Nc3cc(CC(=O)Nc4cccc(F)c4)[nH]n3)ncnc2c1)CCOP(=O)(O)O [barasertib]
In short: as §1

[2] = compound: CC[C@@H]1C(=O)N(C)c2cnc(Nc3ccc(C(=O)NC4CCN(C)CC4)cc3OC)nc2N1C1CCCC1
In short: as §1

volasertib = compound: CC[C@@H]1C(=O)N(C)c2cnc(Nc3ccc(C(=O)N[C@H]4CC[C@H](N5CCN(CC6CC6)CC5)CC4)cc3OC)nc2N1C(C)C [volasertib]
In short: as §1

[3] = compound: CCn1c(C(=O)N(C2CC2)C2CC2)cc2c3c(ncn3C)c(Nc3cc(C)n(C)n3)nc21
In short: as §1

[4] = compound: CCn1cc(-c2ccnc3[nH]c(-c4cccc(CN(C)C)c4)cc23)c(-c2ccc(NC(=O)N(C)C)cc2)n1
In short: as §1

[5] = compound: CN1CCC(CNc2ccc3ncc(-c4cccc(OC(F)(F)F)c4)n3n2)CC1
In short: as §1

sotrastaurin = compound: CN1CCN(c2nc(C3=C(c4c[nH]c5ccccc45)C(=O)NC3=O)c3ccccc3n2)CC1 [sotrastaurin]
In short: as §1

alvocidib = compound: CN1CC[C@H](c2c(O)cc(O)c3c(=O)cc(-c4ccccc4Cl)oc23)[C@H](O)C1 [alvocidib]
In short: as §1

Tubastatin A = compound: CN1CCc2c(c3ccccc3n2Cc2ccc(C(=O)NO)cc2)C1 [Tubastatin A]
In short: as §1

[6] = compound: CNC(=O)C1=CC=CC=C1NC2=NC(=NC=C2Cl)NC3=C(C=C(C=C3)N4CCOCC4)OC
In short: as §1

defactinib = compound: CNC(=O)c1ccc(Nc2ncc(C(F)(F)F)c(NCc3nccnc3N(C)S(C)(=O)=O)n2)cc1 [defactinib]
In short: as §1

encorafenib = compound: COC(=O)N[C@@H](C)CNc1nccc(-c2cn(C(C)C)nc2-c2cc(Cl)cc(NS(C)(=O)=O)c2F)n1 [encorafenib]
In short: as §1

[7] = compound: COC(=O)[C@H](CCSC)NC(=O)C1=C(C=C(C=C1)NC[C@H](CS)N)C2=CC=CC=C2
In short: as §1

alisertib = compound: COc1cc(Nc2ncc3c(n2)-c2ccc(Cl)cc2C(c2c(F)cccc2OC)=NC3)ccc1C(=O)O [alisertib]
In short: as §1

[8] = compound: COc1cc2nc(-c3cc(F)ccc3O)nc(N[C@@H]3CNC[C@H]3C(C)(C)O)c2cc1OC
In short: as §1

gefitinib = compound: COc1cc2ncnc(Nc3ccc(F)c(Cl)c3)c2cc1OCCCN1CCOCC1 [gefitinib]
In short: as §1

saracatinib = compound: CN1CCN(CCOc2cc(OC3CCOCC3)c3c(Nc4c(Cl)ccc5c4OCO5)ncnc3c2)CC1 [saracatinib]
In short: as §1

[9] = compound: CNc1nc(-c2ccc3c(N)n[nH]c3c2)cc(N2C[C@@H](C(=O)NC3CCCCC3)CC[C@H]2C)n1
In short: as §1

Row | Target | log2 fold change (vemurafenib) | log2 fold change [1] | log2 fold change (barasertib) | log2 fold change [2] | log2 fold change (volasertib) | log2 fold change [3] | log2 fold change [4] | log2 fold change [5] | log2 fold change (sotrastaurin) | log2 fold change (alvocidib) | log2 fold change (Tubastatin A) | log2 fold change [6] | log2 fold change (defactinib) | log2 fold change (encorafenib) | log2 fold change [7] | log2 fold change (alisertib) | log2 fold change [8] | log2 fold change (gefitinib) | log2 fold change (saracatinib) | log2 fold change [9]
1 | DIAPH1 (UniProt H9KV28) | inactive: 0.098 | inactive: -0.01 | inactive: 0.091 | inactive: -0.049 | inactive: -0.046 | inactive: -0.046 | inactive: -0.07 | inactive: 0.153 | inactive: -0.001 | inactive: -0.039 | inactive: 0.032 | inactive: 0.036 | inactive: 0.012 | inactive: 0.054 | inactive: 0.213 | inactive: -0.012 | inactive: 0.026 | inactive: -0.005 | – | –
2 | DNAH10 (UniProt Q8IVF4) | inactive: 0.067 | inactive: 0 | inactive: 0.069 | inactive: 0.064 | inactive: 0.044 | inactive: -0.05 | active: -0.582 | inactive: 0.139 | inactive: -0.029 | inactive: -0.248 | inactive: 0.056 | inactive: -0.086 | inactive: -0.074 | inactive: -0.04 | inactive: -0.001 | inactive: 0.027 | inactive: 0.046 | inactive: 0.043 | inactive: 0.022 | inactive: 0.246
3 | DGKA (UniProt P23743) | inactive: 0.094 | inactive: 0.021 | inactive: 0.081 | inactive: -0.091 | inactive: -0.15 | inactive: -0.229 | inactive: 0.031 | inactive: -0.125 | – | inactive: -0.016 | inactive: -0.039 | – | inactive: 0.078 | inactive: 0.007 | inactive: 0.013 | inactive: -0.043 | inactive: -0.042 | inactive: 0.025 | inactive: -0.097 | inactive: -0.034
4 | DNAJA3 isoform 2 (UniProt Q96EY1) | inactive: 0.212 | – | inactive: 0.019 | inactive: 0.07 | – | inactive: -0.087 | – | – | – | – | inactive: -0.065 | inactive: -0.037 | inactive: -0.127 | inactive: -0.066 | inactive: 0.079 | – | – | – | inactive: 0.001 | inactive: 0.085
5 | DNA2 (UniProt P51530) | inactive: -0.094 | – | – | inactive: -0.053 | – | inactive: 0.051 | inactive: 0.03 | inactive: 0.022 | inactive: 0.073 | inactive: -0.116 | inactive: -0.15 | inactive: -0.009 | inactive: -0.039 | inactive: 0.123 | inactive: -0.098 | inactive: -0.007 | – | inactive: 0.036 | inactive: 0.008 | inactive: -0.035
6 | DOCK2 (UniProt Q92608) | inactive: 0.029 | inactive: 0.024 | – | inactive: -0.1 | inactive: -0.091 | inactive: 0.071 | inactive: -0.157 | inactive: 0.085 | inactive: 0.063 | inactive: -0.199 | inactive: -0.071 | inactive: 0 | inactive: -0.185 | inactive: -0.032 | inactive: -0.077 | inactive: -0.122 | inactive: 0.102 | inactive: 0.004 | inactive: 0.043 | inactive: 0.044
7 | DHX34 (UniProt Q14147) | inactive: 0.146 | – | inactive: -0.086 | inactive: 0.068 | – | inactive: -0.097 | inactive: 0.16 | inactive: 0.057 | inactive: -0.01 | inactive: -0.057 | inactive: 0.065 | inactive: 0.017 | inactive: -0.074 | inactive: -0.015 | inactive: -0.055 | inactive: -0.022 | – | inactive: -0.08 | inactive: 0.005 | inactive: 0.08
8 | DHX32 (UniProt Q7L7V1) | inactive: 0.173 | – | – | inactive: -0.026 | – | inactive: -0.106 | inactive: 0.137 | inactive: 0.003 | inactive: -0.011 | inactive: 0.019 | inactive: 0.027 | inactive: 0.044 | inactive: -0.043 | inactive: 0.062 | inactive: 0.048 | inactive: 0.017 | – | inactive: 0.02 | – | –
9 | DLG5 (UniProt Q8TDM6) | inactive: 0.089 | – | inactive: 0.098 | – | – | – | – | – | – | – | – | – | inactive: -0.039 | – | – | – | – | – | inactive: -0.16 | inactive: 0.07
10 | DNTTIP2 (UniProt Q5QJE6) | inactive: 0.02 | inactive: 0.088 | inactive: 0.034 | inactive: 0.062 | inactive: -0.085 | – | inactive: -0.044 | inactive: 0.019 | inactive: 0.043 | inactive: 0.01 | – | inactive: -0.057 | inactive: -0.231 | inactive: 0.01 | inactive: -0.126 | inactive: -0.19 | inactive: 0.115 | inactive: 0.187 | inactive: 0.027 | inactive: 0.117
11 | DOP1B (UniProt Q9Y3R5) | inactive: 0.021 | inactive: 0.059 | – | – | inactive: 0.053 | – | inactive: -0.321 | inactive: 0.125 | inactive: 0.125 | inactive: 0 | – | – | inactive: -0.042 | – | – | – | inactive: -0.054 | – | – | –
12 | DNHD1 (UniProt Q96M86) | inactive: 0.078 | inactive: -0.003 | inactive: 0.075 | – | inactive: 0.005 | inactive: -0.118 | – | – | inactive: 0.022 | – | inactive: 0.181 | inactive: -0.047 | inactive: 0.047 | – | – | – | inactive: 0.036 | – | – | –
13 | DMAC1 (UniProt Q96GE9) | inactive: -0.094 | – | – | – | – | inactive: 0.007 | inactive: 0.041 | inactive: -0.142 | – | inactive: 0.038 | inactive: 0.094 | – | inactive: 0.056 | – | – | – | – | – | – | –
14 | DMAC2 isoform 4 (UniProt Q9NW81) | inactive: 0.085 | inactive: 0.039 | inactive: -0.076 | inactive: -0.043 | inactive: 0.006 | inactive: -0.032 | inactive: -0.017 | inactive: -0.016 | inactive: 0.075 | inactive: 0.079 | inactive: 0.311 | inactive: -0.003 | inactive: 0 | inactive: -0.021 | inactive: -0.008 | inactive: -0.034 | inactive: 0.082 | inactive: 0.055 | – | –
15 | DHRSX (UniProt Q8N5I4) | inactive: -0.14 | – | – | – | – | – | – | – | – | – | – | – | inactive: 0.034 | – | – | – | – | – | – | –

Whole records from above. Order of values: log2 fold change (vemurafenib) | log2 fold change [1] | log2 fold change (barasertib) | log2 fold change [2] | log2 fold change (volasertib) | log2 fold change [3] | log2 fold change [4] | log2 fold change [5] | log2 fold change (sotrastaurin) | log2 fold change (alvocidib) | log2 fold change (Tubastatin A) | log2 fold change [6] | log2 fold change (defactinib) | log2 fold change (encorafenib) | log2 fold change [7] | log2 fold change (alisertib) | log2 fold change [8] | log2 fold change (gefitinib) | log2 fold change (saracatinib) | log2 fold change [9]
DMAC2 isoform 4 (UniProt Q9NW81) as listed: inactive: 0.085 | inactive: 0.039 | inactive: -0.076 | inactive: -0.043 | inactive: 0.006 | inactive: -0.032 | inactive: -0.017 | inactive: -0.016 | inactive: 0.075 | inactive: 0.079 | inactive: 0.311 | inactive: -0.003 | inactive: 0 | inactive: -0.021 | inactive: -0.008 | inactive: -0.034 | inactive: 0.082 | inactive: 0.055 | – | –
DHX32 (UniProt Q7L7V1) as listed: inactive: 0.173 | – | – | inactive: -0.026 | – | inactive: -0.106 | inactive: 0.137 | inactive: 0.003 | inactive: -0.011 | inactive: 0.019 | inactive: 0.027 | inactive: 0.044 | inactive: -0.043 | inactive: 0.062 | inactive: 0.048 | inactive: 0.017 | – | inactive: 0.02 | – | –
